# Test results as given in PubChem BioAssay AID328 (DTP/NCI, 2004).
# The list shows only some results of the screen, not a fair sample: it gathers tests that were run many times, whatever their T/C, doses with no T/C, and many T/C values between a quarter and a half above the control. Other doses and runs of a compound stand elsewhere. T/C gives the treated animals as a percentage of the vehicle group. Some doses have a count of surviving animals in place of a T/C: the source files T/C as zero there, which appears to mark a toxic dose or a test without result, not a measured value. Some survivor counts are full or nearly so, which does not show that the dose was tolerated: survival well below the control is almost never listed, so the zero probably covers shortened survival too. Survivors were counted at the toxicity check, usually on the fifth day, unless a day is given; later deaths do not show. Schedule codes are those of the source, taken here to give the interval after Q, in days (D) or hours (H), and the number of doses after X. Some entries hold several experiments; their values stand side by side, smallest first. Where survival is the endpoint, the PubChem record calls one and a half times the control and up active, and a quarter to a half above the control has no call in these data; cut-offs in other NCI protocols can differ. Some T/C values carry the count of animals alive at the toxicity check (mostly the fifth day); without a count, all were alive then.
# Tested on: BDF1 mice, P388 leukemia ip, median survival T/C
# Assay: NCI In Vivo Anticancer Drug Screen. Data for tumor model P388 Leukemia (intraperitoneal) in B6D2F1 (BDF1) mice
# Conditions: T/C endpoint: median survival time, higher T/C = longer survival
# Procedure, shortened: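 Compound-treated tumour-bearing mice were compared with vehicle-treated controls. Survival was recorded, and the value is the treated-group measurement divided by the control-group measurement (T/C).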
# [1] = dose: 50.0 mg/kg/injection, schedule: Q04DX003 (ip), vehicle: saline
# [2] = dose: 100.0 mg/kg/injection, schedule: Q04DX003 (ip), vehicle: saline
# [3] = dose: 200.0 mg/kg/injection, schedule: Q04DX003 (ip), vehicle: saline
# [4] = dose: 400.0 mg/kg/injection, schedule: Q04DX003 (ip), vehicle: saline
# [5] = dose: 25.0 mg/kg/injection, schedule: Q01DX009 (ip), vehicle: saline
# [6] = dose: 100.0 mg/kg/injection, schedule: Q01DX009 (ip), vehicle: saline
# [7] = dose: 100.0 mg/kg/injection, schedule: Q01DX009 (ip), vehicle: saline with Tween-80
# [8] = dose: 200.0 mg/kg/injection, schedule: Q04DX003 (ip), vehicle: saline with Tween-80
# [9] = dose: 200.0 mg/kg/injection, schedule: Q01DX009 (ip), vehicle: saline with Tween-80
# [10] = dose: 50.0 mg/kg/injection, schedule: Q01DX009 (ip), vehicle: saline
compound,measurement,setting,value
O=C1C=CC(=O)N1CN1CCOCC1,T/C,"dose: 8.25 mg/kg/injection, schedule: Q01DX009 (ip), vehicle: saline",133 % of control
same,T/C,"dose: 12.5 mg/kg/injection, schedule: Q01DX009 (ip), vehicle: saline",125 % of control
same,survivor count,"dose: 26.0 mg/kg/injection, schedule: Q01DX009 (ip), vehicle: saline",6 of 6
same,survivor count,"dose: 40.0 mg/kg/injection, schedule: Q01DX009 (ip), vehicle: saline",0 of 6
same,survivor count,"dose: 60.0 mg/kg/injection, schedule: Q01DX009 (ip), vehicle: saline",0 of 6
C=CC(COC(C)=O)N1CC1 (configuration not stated),T/C,"dose: 12.0 mg/kg/injection, schedule: Q01DX009 (ip), vehicle: saline",130 % of control
same,T/C,"dose: 17.0 mg/kg/injection, schedule: Q01DX009 (ip), vehicle: saline",145 % of control
same,survivor count,[1],6 of 6
same,survivor count,[2],2 of 6
same,survivor count,[3],0 of 6
same,survivor count,[4],0 of 6
c1ccc(-c2ncc3cnccn23)cc1,survivor count,[5],6 of 6
same,survivor count,[6],0 of 6
same,survivor count,[3],0 of 6
COc1cc(N)ccc1C(=O)O,T/C,"dose: 1.56 mg/kg/injection, schedule: Q01DX009 (ip), vehicle: saline",131 % of control
same,survivor count,[5],3 of 6
CCCCCCCCCCCCCCCCCC[N+](C)(C)C,T/C,"dose: 4.12 mg/kg/injection, schedule: Q01DX009 (ip), vehicle: saline",145 % of control [5 of 6 alive]
same,survivor count,"dose: 6.25 mg/kg/injection, schedule: Q01DX009 (ip), vehicle: saline",4 of 6
same,survivor count,"dose: 9.37 mg/kg/injection, schedule: Q01DX009 (ip), vehicle: saline",3 of 6 and 5 of 6
same,survivor count,"dose: 29.0 mg/kg/injection, schedule: Q04DX003 (ip), vehicle: saline",4 of 6
same,survivor count,"dose: 45.0 mg/kg/injection, schedule: Q04DX003 (ip), vehicle: saline",3 of 6
same,survivor count,"dose: 65.0 mg/kg/injection, schedule: Q04DX003 (ip), vehicle: saline",2 of 6
COc1ccc(-c2c(C)c(C)nc(Cl)c2C#N)c(OCc2ccccc2)c1OC,survivor count,"dose: 0.05 mg/kg/injection, schedule: Q01DX009 (ip), vehicle: Klucel (hydroxypropylcellulose) (HPC)",6 of 6
same,survivor count,"dose: 0.2 mg/kg/injection, schedule: Q01DX009 (ip), vehicle: Klucel (hydroxypropylcellulose) (HPC)",6 of 6
same,survivor count,"dose: 0.4 mg/kg/injection, schedule: Q01DX009 (ip), vehicle: Klucel (hydroxypropylcellulose) (HPC)",6 of 6
COc1cc(N(CCCl)CCCl)ccc1/C=N\NC(=O)c1cccnc1,T/C,"dose: 200.0 mg/kg/injection, schedule: Q01DX009 (ip), vehicle: Klucel (hydroxypropylcellulose) (HPC)",140 % of control
CCN(CC)CCOCCO,T/C,[3],125 % of control
NNC(=O)CCc1ccccc1Br,T/C,[7],145 % of control
Cc1nc2nc(N)[nH]c(=O)c2[nH]1,survivor count,[8],3 of 6
same,survivor count,"dose: 400.0 mg/kg/injection, schedule: Q04DX003 (ip), vehicle: saline with Tween-80",2 of 6
CCN(/C=C/C=C(C#N)C#N)CC,survivor count,[9],0 of 6
OC1CCCC2CCC[N-]C12.OC1CCCC2CCC[N-]C12.[O]=[V][OH] (configuration not stated),survivor count,[5],3 of 6
same,survivor count,[10],1 of 6
Cc1nc(NN)c(C(N)=O)nc1C,survivor count,[6],4 of 6
same,survivor count,[2],3 of 6
same,survivor count,"dose: 200.0 mg/kg/injection, schedule: Q01DX009 (ip), vehicle: saline",0 of 6
same,survivor count,[3],2 of 6
same,survivor count,"dose: 400.0 mg/kg/injection, schedule: Q01DX009 (ip), vehicle: saline",0 of 6
c1ccc(CN(CCNc2ccccc2)c2ccccc2)cc1,survivor count,"dose: 12.5 mg/kg/injection, schedule: Q01DX009 (ip), vehicle: water",3 of 6
same,survivor count,"dose: 400.0 mg/kg/injection, schedule: Q04DX003 (ip), vehicle: water",2 of 6
CC(=O)n1ncc2ccc([N+](=O)[O-])cc21,T/C,"dose: 50.0 mg/kg/injection, schedule: Q01DX009 (ip), vehicle: water",125 % of control
NC(=O)C1(c2ccccc2)CCN(Cc2ccccc2)CC1,survivor count,[9],4 of 6
same,survivor count,[8],4 of 6
COc1cc2c(c(OC)c1OC)-c1ccc(OC)c(=O)cc1[C@@H](NC=O)CC2,T/C,"dose: 0.05 mg/kg/injection, schedule: Q01DX010 (ip), vehicle: saline",131 % of control
same,T/C,"dose: 0.1 mg/kg/injection, schedule: Q01DX010 (ip), vehicle: saline",140 % of control
same,T/C,"dose: 0.19 mg/kg/injection, schedule: Q01DX010 (ip), vehicle: saline",136 % of control
same,survivor count,"dose: 1.5 mg/kg/injection, schedule: Q01DX009 (ip), vehicle: Klucel (hydroxypropylcellulose) (HPC)",5 of 6
same,T/C,"dose: 1.5 mg/kg/injection, schedule: Q01DX010 (ip), vehicle: saline",141 % of control
same,survivor count,"dose: 3.0 mg/kg/injection, schedule: Q01DX009 (ip), vehicle: Klucel (hydroxypropylcellulose) (HPC)",2 of 6
same,survivor count,"dose: 3.0 mg/kg/injection, schedule: Q01DX010 (ip), vehicle: saline",2 of 6
same,survivor count,"dose: 6.0 mg/kg/injection, schedule: Q01DX010 (ip), vehicle: saline",0 of 6
same,T/C,"dose: 45.0 micrograms/kg/injection, schedule: Q01DX009 (ip), vehicle: Klucel (hydroxypropylcellulose) (HPC)",130 % of control
CC(=O)c1ccc(Oc2ccc(/C(C)=N\N=C(N)N)cc2)cc1,T/C,[5],125 and 129 % of control
same,T/C,"dose: 37.5 mg/kg/injection, schedule: Q01DX009 (ip), vehicle: saline",127 % of control
same,survivor count,[10],3 of 6 and 4 of 6
same,survivor count,[6],0 of 6
CC[CH2][Pb]([CH2]CC)([CH2]CC)[O]C(=O)C(Cl)(Cl)Cl,survivor count,"dose: 25.0 mg/kg/injection, schedule: Q01DX009 (ip), vehicle: saline with Tween-80",0 of 6
CN(C1=NS(=O)(=O)N=C(N(C)c2ccccc2)O1)c1ccccc1,T/C,[9],139 % of control
same,T/C,"dose: 400.0 mg/kg/injection, schedule: Q01DX009 (ip), vehicle: Klucel (hydroxypropylcellulose) (HPC)",132 % of control
same,T/C,"dose: 400.0 mg/kg/injection, schedule: Q01DX009 (ip), vehicle: saline with Tween-80",145 % of control [5 of 6 alive]
CC(=O)c1ccccc1OS(=O)(=O)c1ccc([N+](=O)[O-])cc1,survivor count,"dose: 50.0 mg/kg/injection, schedule: Q01DX009 (ip), vehicle: saline sonified",6 of 6
CSc1nc(N)c2c(C(N)=O)cc(=O)[nH]c2n1,survivor count,"dose: 400.0 mg/kg/injection, schedule: Q04DX002 (ip), vehicle: saline with Tween-80",6 of 6
CSc1cc(-c2ccc(Cl)cc2)s[s+]1,survivor count,[7],0 of 6
same,survivor count,"dose: 100.0 mg/kg/injection, schedule: Q04DX003 (ip), vehicle: saline with Tween-80",1 of 6
same,survivor count,[8],0 of 6
COc1cccc(/C=C/[N+](=O)[O-])c1OC,T/C,"dose: 12.5 mg/kg/injection, schedule: Q01DX009 (ip), vehicle: Klucel (hydroxypropylcellulose) (HPC)",125 % of control
same,T/C,"dose: 16.0 mg/kg/injection, schedule: Q01DX009 (ip), vehicle: Klucel (hydroxypropylcellulose) (HPC)",142 % of control
same,T/C,"dose: 25.0 mg/kg/injection, schedule: Q01DX009 (ip), vehicle: Klucel (hydroxypropylcellulose) (HPC)",125 and 142 % of control
same,T/C,"dose: 25.0 mg/kg/injection, schedule: Q01DX010 (ip), vehicle: carboxymethylcellulose (CMC)",140 % of control
same,survivor count,"dose: 50.0 mg/kg/injection, schedule: Q01DX009 (ip), vehicle: Klucel (hydroxypropylcellulose) (HPC)",6 of 6
same,survivor count,"dose: 50.0 mg/kg/injection, schedule: Q01DX010 (ip), vehicle: carboxymethylcellulose (CMC)",5 of 6
same,survivor count,[1],6 of 6
same,survivor count,"dose: 100.0 mg/kg/injection, schedule: Q01DX010 (ip), vehicle: carboxymethylcellulose (CMC)",0 of 6
same,T/C,[2],132 % of control
same,survivor count,"dose: 200.0 mg/kg/injection, schedule: Q01DX010 (ip), vehicle: carboxymethylcellulose (CMC)",0 of 6
same,T/C,[3],130 % of control
same,survivor count,[4],3 of 6
